Reference: PubChem BioAssay AID1307 (SRMLSC, 2008)
Fewer than 10 of roughly 1,200 compounds were called active.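 How the source made its calls: active means inhibition reaching a set limit at one or more tested concentrations; inactive means inhibition under that limit at every dose.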 Some of the results follow. Entries with a potency or affinity are not part of this list.

assay: RAM pathway signaling blockade in S. cerevisiae – dose response (AID 1307);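 further: 0% = DMSO vehicle wells and 100% = 10 µM 1-NA-PP1 control; higher inhibition means more yeast growth since RAM block rescues cells from 5-FOA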; conditions: S. cerevisiae RAM network URA3 reporter, 5-FOA growth OD615, active compounds read high, yeast express analog-sensitive mutant Cbk1 kinase; at 100 µM unless noted

Max inhibition, inactive:
COc1ccccc1-c1noc(CCC(=O)Nc2cccc(C(F)(F)F)c2)n1 2.9% [at 0.782 µM], Cn1c(SCC(=O)N2CCc3ccccc32)nnc1-c1ccc(S(=O)(=O)N2CCCC2)cc1 6.24%, Cc1cnn(-c2nc(-c3ccccc3)cc(-c3ccccc3)n2)c1 2.2% [at 0.782 µM], Cc1ccc(OCC(O)Cn2c3ccccc3c3ccccc32)cc1 (centres undefined) 4.27%, O=C(Nc1ccccc1Cl)c1cccc(COc2cc(Cl)ccc2Cl)c1 2.59%, O=C(COC(=O)C1(c2ccccc2F)CCCC1)Nc1ncc(C(F)(F)F)cc1Cl 2.79% [at 0.196 µM], CCOC(=O)C1=C(O)/C(=C/c2cc(OC)c(O)c(OC)c2)SC1=Nc1ccc(OC)cc1 4.16%, CCOC(=O)c1c(-c2cccc([N+](=O)[O-])c2)csc1NC(=O)CCCOc1ccccc1 4.41% [at 25 µM], COc1cccc(CN(Cc2ccccc2F)S(=O)(=O)c2ccc(S(=O)(=O)NCc3ccccc3)cc2)c1 4.33%, COc1ccccc1OCC(=O)Nc1ccc(CSc2ccccc2)cc1C 1.56% [at 25 µM], O=C(Nc1ccc(Br)cc1)c1cccc(S(=O)(=O)Nc2cnc3ccccc3c2)c1 3.63%, COc1ccccc1NS(=O)(=O)c1ccc2oc(SCc3ccc(F)cc3)nc2c1 1.06%, O=C(O)CC1S/C(=N/N=C/c2ccc(Br)cc2)N(c2ccccc2)C1=O (centres undefined) 5.74%, O=C(CSc1nc2ccccc2c(=O)n1CCC(=O)N1CCCCC1)NCc1ccccc1 2.79% [at 3.125 µM], COc1ccc(OC2C(=O)N(Cc3ccc4c(c3)OCO4)C2c2cccs2)cc1 (centres undefined) 3.16%, CC1=C(C(=O)OCc2ccccc2)C(c2ccc([N+](=O)[O-])cc2)NC(=O)N1CCCCCC(=O)O (centres undefined) 2.11% [at 0.782 µM], Cc1ccc(OCCn2cc(/C=C(\C#N)C(=O)NCC3CCCO3)c3ccccc32)cc1 (centres undefined) 4.27%, C=CCN(CC=C)S(=O)(=O)c1ccc(NC(=O)COc2ccccc2OC)cc1 3.12% [at 50 µM], CCCN(CC1CC1)C(=O)CSc1ncnc2sc(C)c(C)c12 3.11% [at 3.125 µM], COC(=O)c1ccc(CSc2nc(-c3ccco3)cc(C(F)(F)F)n2)o1 5.27%, COc1ccc(Br)cc1C(=O)Nc1ccccc1-c1ccccc1 6.2% [at 50 µM], CCOC(=O)C1=NN(c2ccccc2C)C2=NC(C)=C(C(=O)OC)C(c3cccc(OC)c3)N12 (centres undefined) 3.76% [at 3.125 µM], COc1cc(NS(=O)(=O)c2ccc(NC(=S)NC(=O)/C=C/c3ccco3)cc2)ncn1 5.65%, O=C(CC(c1ccccc1)(c1ccccc1)c1ccccc1)N[C@@H](Cc1ccccc1)C(=O)O 5.06%, COc1ccc2c(CC(=O)OCC(=O)Nc3cc(C)c(C)cc3[N+](=O)[O-])coc2c1 3.19%, Cc1ccc2nc(-c3ccc(NC(=O)CSc4nccc(=O)[nH]4)cc3)sc2c1 5.79%, Cc1ccc(SCCNC(=O)c2ccc(C)c(S(=O)(=O)Nc3cccc(C)c3)c2)cc1 5.06%, COc1ccc(C(=O)NCC(=O)OCc2cccc(Br)c2)cc1 2.31% [at 0.196 µM], Cc1ccc(C(=O)Nc2cc(Cl)ccc2N2CCCCC2)s1 3.86%, O=C(OCC#CCSc1nnc(-c2cccc3ccccc23)o1)c1ccco1 2.9% [at 12.5 µM], CCCCc1ccc(NC(=S)Nc2ccc(Cl)c(S(=O)(=O)N(C)C)c2)cc1 3.53% [at 50 µM], CC1CCc2nc(NC(=O)Nc3ccc4c(c3)OCO4)sc2C1 (centres undefined) 2.56% [at 1.563 µM], C=CCOC(=O)C1=C[C@@H](c2csc3ccccc23)C[C@@H](OCc2ccc(CO)cc2)O1 3.74% [at 12.5 µM], CCCCN1C(=O)/C(=C/C=C2\SCCN2C)SC1=S 2.53% [at 0.782 µM], O=C(OCc1ccc(Br)cc1)c1cccc(-c2nnc(-c3ccccc3)o2)c1 3.8% [at 12.5 µM], C=CCO/N=C(\C)c1c(O)c(C)c(-c2ccccc2)n(-c2ccccc2)c1=O 3.28%, CCSC1=N/C(=C\c2ccc3c(c2)OCO3)C(=O)S1 4.16%, COCCCNC(=S)N1CCCN(c2nc3c(C)c(C)ccc3cc2C#N)CC1 4.04%, COC(=O)c1ccc(-c2ncc(-c3cccc4ccccc34)o2)cc1 2.44% [at 1.563 µM], COc1cccc(-c2nc(=S)c3c(n2Cc2ccco2)CCCC3)c1 3.28% [at 50 µM], O=C(NCCn1cc(SCc2ccccc2)c2ccccc21)c1ccccc1F 1.2% [at 0.782 µM], CCCCCOc1ccc(C(=O)OCC(=O)Nc2cc(C)c(C)cc2[N+](=O)[O-])cc1 3.63%, CCOC(=O)/C(C#N)=C/c1cn(CCOc2ccc(OC)cc2)c2ccccc12 4.14% [at 50 µM], CCOC(=O)C1=C(CC)Nc2ccccc2N=C1NC(=O)c1cc(S(=O)(=O)N(C)C)ccc1Cl 7.91%, Cc1cccc(C(=O)NCc2nnc3c4ccccc4c(-c4ccccc4)nn23)c1 4.5%, O=C(CCCSc1nc2ccccc2[nH]1)Nc1nnc(-c2ccccc2)o1 1.46% [at 1.563 µM], CN(C(=S)Nc1ccc(Oc2ccccc2)cc1)c1ccc(O)cc1 1.95% [at 0.391 µM], Cc1ccc(C)c(N2CCN(C(=O)c3ccc(Cn4c(=S)[nH]c5ccc(N6CCOCC6)cc5c4=O)cc3)CC2)c1 5.67%, CCOC(=O)c1c(-c2cccs2)csc1NC(=O)COC(=O)c1c(C)noc1C 4.68%, O=C(NCCSCc1ccccc1)c1ccc(C2SCC(=O)N2Cc2ccccc2)cc1 (centres undefined) 3.37% [at 50 µM], COc1ccc(C2NC(=O)NC(C)=C2C(=O)Nc2cc(C)ccc2C)cc1OC (centres undefined) 11.8%, COc1cccc(C(=O)NN2c3ccccc3CCc3ccccc32)c1 2.81%, CN(C[C@@H](CC1CCCCC1)N(C[C@H](Cc1ccccc1)N(CCc1ccccc1)N=O)N=O)N=O 4.71%, O=C(CN(C(=O)CCC(=O)Nc1ccccn1)c1ccc2c(c1)OCCO2)NCCc1ccccc1 5.19%, CC(Oc1ccc(-c2ccccc2)c(F)c1)c1ccn(S(=O)(=O)c2ccc(Br)cc2)n1 (centres undefined) 3.51%, S=C(NCC1CCCCC1)Nc1ccc(Oc2ccccc2)cc1 2.31% [at 50 µM], Cc1cc(/C=C(/C#N)c2cccc(Cl)c2)c(C)n1C 4.01%, Cc1ccc(C(=O)c2ccccc2C(=O)OCC(=O)NCCc2ccc(Cl)cc2Cl)cc1 3.42%, COc1ccccc1N(CC(O)COc1ccc(C)cc1)S(=O)(=O)c1ccccc1 (centres undefined) 4.01% [at 50 µM], COc1cccc(NC(=S)NCc2ccc3c(c2)cc(C)n3C)c1 3.71% [at 25 µM], COc1ccc(C(=O)OCC(=O)c2ccc(C3CCCCC3)cc2)cc1 5.71% [at 25 µM], Cc1cccc(/C=C2\Oc3cc(OS(C)(=O)=O)ccc3C2=O)c1 2.88% [at 3.125 µM], C=CCn1c(SCc2cc(C(C)=O)ccc2OCC)nc2ccccc2c1=O 2.29% [at 12.5 µM], CC(=O)Nc1ccc(S(=O)(=O)Nc2nc3ccccc3nc2Nc2ccc3ccccc3c2)cc1 5.34% [at 12.5 µM], CC(C)S(=O)(=O)C1=NSC2=NC(=O)/C(=C\c3ccc(-c4ccccc4)o3)C(=N)N21 11.4%, COc1cc(CNn2c(C)n[nH]c2=S)cc(Cl)c1OCc1ccc(F)cc1 4.5%, CCN(CC)S(=O)(=O)c1ccc(NC(=O)CCC2CCCCC2)cc1 7.29%, COc1cccc(NC(=S)NCCC(c2ccccc2)c2ccccc2)c1 3.76% [at 50 µM], C(=N\N(c1ccccc1)c1ccccc1)/c1ccc2c(c1)OCO2 2.94% [at 0.782 µM], CCOc1ccccc1NC(=S)NC(=O)CCCOc1ccc(Cl)cc1Cl 3.13% [at 50 µM], CCCCn1c(SCc2nc3ccccc3s2)nc2ccccc2c1=O 8.78%, CC1(C)C(C=C(Cl)Cl)C1C(=O)Nc1ccc([N+](=O)[O-])cc1 (centres undefined) 2.98% [at 6.25 µM], COc1ccc(NC2=C(Cl)C(=O)N(CCc3ccccc3)C2=O)c(OC)c1 2.52% [at 3.125 µM], CCOC(=O)c1c(-c2ccc(OC)cc2)csc1NC(=O)CSc1ccccc1 5.06%, CNCC(C)COc1ccccc1OCc1ccccc1 (centres undefined) 3.04% [at 0.196 µM], O=C(C(Sc1ccccc1)c1ccccc1)N1CCN(c2ccccc2)CC1 (centres undefined) 2.99% [at 3.125 µM], Cc1ccc(O)c(-c2cc(-c3cccc(Br)c3)n[nH]2)c1 2.94%, Brc1ccc(CSc2nnc(Cc3c[nH]c4ccccc34)o2)cc1 3.66%, COc1ccc(CC(=O)Nc2cccc(S(=O)(=O)N3CCCCCC3)c2)cc1OC 2.17% [at 0.782 µM]
